Data as given in PubChem BioAssay AID743458 (Peter MacCallum Cancer Centre, 2014).
Test: 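Identify genes whose loss lifts vorinostat resistance in colon cancer cells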 (follow-up of hits). System: human HCT116-VR colon cancer cells made resistant to vorinostat. Knock-down reagent: single siRNA or pool against human genes, 25 nM per single siRNA. Timing: about 72 h after transfection, including 24 h of drug. Treatment: vorinostat, 2.5 µM final, for 24 h. Measurement: 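Live-cell fluorescent viability and luminescent caspase 3/7 activity after vorinostat treatment, background subtracted, mean of duplicate plates, as fold change over mock-transfected wells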. Direction: viability relative to mock: higher = more living cells than mock; caspase activity relative to mock: higher = more apoptosis than mock. Call rule: 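An siRNA counts as active if classed as reduced viability or as caspase activation, otherwise inactive; a hit class needed wells that remained healthy in the absence of drug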.
Here is one part, drawn at random, of about 1,800 reagents tested. Of all reagents, 732 (41%) got an active call. 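Calls are per siRNA reagent; a gene was deemed confirmed only if most of its four siRNAs scored.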 A number with no mark means an inactive call. The numbers tell different reagents against one gene apart.

| target | reagent | viability relative to mock | caspase activity relative to mock | viability hit class | caspase hit class |
| --- | --- | --- | --- | --- | --- |
| RNF122 | 1 | 1.02 | 1.7 | no change | no change |
| RNF122 | 2 | 0.76 | 2.2 | no change | no change |
| RNF122 | 3 | 0.97 | 1.56 | no change | no change |
| RNF122 | 4 | 0.84 | 0.73 | no change | no change |
| EIF3I | 1 | 0.39 (active) | 0.94 | reduced viability | no change |
| EIF3I | 2 | 0.48 (active) | 0.65 | reduced viability | no change |
| EIF3I | 3 | 0.4 (active) | 0.7 | reduced viability | no change |
| EIF3I | 4 | 0.46 (active) | 0.54 | reduced viability | no change |
| NXPE1 | 1 | 0.87 | 1.2 | no change | no change |
| NXPE1 | 2 | 0.68 | 1.23 | no change | no change |
| NXPE1 | 3 | 0.56 (active) | 2.85 | reduced viability | caspase activation |
| NXPE1 | 4 | 0.73 | 1.29 | no change | no change |
| CAPN12 | 1 | 0.74 | 1.87 | no change | no change |
| CAPN12 | 2 | 0.66 (active) | 2.71 | no change | caspase activation |
| CAPN12 | 3 | 0.88 (active) | 4.95 | no change | caspase activation |
| CAPN12 | 4 | 0.4 (active) | 5.38 | reduced viability | caspase activation |
| HLA-DQA2 | 1 | 0.86 (active) | 3.68 | no change | caspase activation |
| HLA-DQA2 | 2 | 0.59 | 2.46 | no change | no change |
| HLA-DQA2 | 3 | 0.89 | 1.5 | no change | no change |
| HLA-DQA2 | 4 | 0.92 | 1.79 | no change | no change |
| KCNE1 | 1 | 0.86 | 1.36 | no change | no change |
| KCNE1 | 2 | 0.96 | 1.21 | no change | no change |
| KCNE1 | 3 | 0.99 | 1.12 | no change | no change |
| KCNE1 | 4 | 0.98 | 1.25 | no change | no change |

Entries above called active, once more:
| target | reagent | viability relative to mock | caspase activity relative to mock | viability hit class | caspase hit class |
| --- | --- | --- | --- | --- | --- |
| EIF3I | 1 | 0.39 (active) | 0.94 | reduced viability | no change |
| EIF3I | 2 | 0.48 (active) | 0.65 | reduced viability | no change |
| EIF3I | 3 | 0.4 (active) | 0.7 | reduced viability | no change |
| EIF3I | 4 | 0.46 (active) | 0.54 | reduced viability | no change |
| NXPE1 | 3 | 0.56 (active) | 2.85 | reduced viability | caspase activation |
| CAPN12 | 2 | 0.66 (active) | 2.71 | no change | caspase activation |
| CAPN12 | 3 | 0.88 (active) | 4.95 | no change | caspase activation |
| CAPN12 | 4 | 0.4 (active) | 5.38 | reduced viability | caspase activation |
| HLA-DQA2 | 1 | 0.86 (active) | 3.68 | no change | caspase activation |

Further records follow.
| target | reagent | viability relative to mock | caspase activity relative to mock | viability hit class | caspase hit class |
| --- | --- | --- | --- | --- | --- |
| FAM86B1 | 1 | 0.67 | 1.68 | no change | no change |
| FAM86B1 | 2 | 0.84 (active) | 4.17 | no change | caspase activation |
| FAM86B1 | 3 | 0.98 | 1.18 | no change | no change |
| FAM86B1 | 4 | 0.73 (active) | 4.21 | no change | caspase activation |
| PNN | 1 | 0.16 (active) | 2.74 | reduced viability | caspase activation |
| PNN | 2 | 0.52 (active) | 4.07 | reduced viability | caspase activation |
| PNN | 3 | 0.5 (active) | 4.67 | reduced viability | caspase activation |
| PNN | 4 | 0.44 (active) | 3.05 | reduced viability | caspase activation |
| P2RY12 | 1 | 1 | 1.32 | no change | no change |
| P2RY12 | 2 | 0.4 (active) | 3.78 | reduced viability | caspase activation |
| P2RY12 | 3 | 0.81 | 1.23 | no change | no change |
| P2RY12 | 4 | 0.89 | 0.97 | no change | no change |
| HPCAL1 | 1 | 0.48 (active) | 2.3 | reduced viability | no change |
| HPCAL1 | 2 | 0.83 | 1.43 | no change | no change |
| HPCAL1 | 3 | 0.46 (active) | 2.69 | reduced viability | caspase activation |
| HPCAL1 | 4 | 0.32 (active) | 3.25 | reduced viability | caspase activation |
